Measurements: publication doi:10.1101/099465
These are yes or no findings as the source states them, for the method shown. In cells and extracts the contact can be indirect. Some binding calls cover weakened binding; strength is not graded here.

By UniProt entry, the sequences of proteins in these tests, tags left out. Where a name states a change or a piece, a line headed by the entry shows the natural chain unless it says otherwise.
UniProt P17301: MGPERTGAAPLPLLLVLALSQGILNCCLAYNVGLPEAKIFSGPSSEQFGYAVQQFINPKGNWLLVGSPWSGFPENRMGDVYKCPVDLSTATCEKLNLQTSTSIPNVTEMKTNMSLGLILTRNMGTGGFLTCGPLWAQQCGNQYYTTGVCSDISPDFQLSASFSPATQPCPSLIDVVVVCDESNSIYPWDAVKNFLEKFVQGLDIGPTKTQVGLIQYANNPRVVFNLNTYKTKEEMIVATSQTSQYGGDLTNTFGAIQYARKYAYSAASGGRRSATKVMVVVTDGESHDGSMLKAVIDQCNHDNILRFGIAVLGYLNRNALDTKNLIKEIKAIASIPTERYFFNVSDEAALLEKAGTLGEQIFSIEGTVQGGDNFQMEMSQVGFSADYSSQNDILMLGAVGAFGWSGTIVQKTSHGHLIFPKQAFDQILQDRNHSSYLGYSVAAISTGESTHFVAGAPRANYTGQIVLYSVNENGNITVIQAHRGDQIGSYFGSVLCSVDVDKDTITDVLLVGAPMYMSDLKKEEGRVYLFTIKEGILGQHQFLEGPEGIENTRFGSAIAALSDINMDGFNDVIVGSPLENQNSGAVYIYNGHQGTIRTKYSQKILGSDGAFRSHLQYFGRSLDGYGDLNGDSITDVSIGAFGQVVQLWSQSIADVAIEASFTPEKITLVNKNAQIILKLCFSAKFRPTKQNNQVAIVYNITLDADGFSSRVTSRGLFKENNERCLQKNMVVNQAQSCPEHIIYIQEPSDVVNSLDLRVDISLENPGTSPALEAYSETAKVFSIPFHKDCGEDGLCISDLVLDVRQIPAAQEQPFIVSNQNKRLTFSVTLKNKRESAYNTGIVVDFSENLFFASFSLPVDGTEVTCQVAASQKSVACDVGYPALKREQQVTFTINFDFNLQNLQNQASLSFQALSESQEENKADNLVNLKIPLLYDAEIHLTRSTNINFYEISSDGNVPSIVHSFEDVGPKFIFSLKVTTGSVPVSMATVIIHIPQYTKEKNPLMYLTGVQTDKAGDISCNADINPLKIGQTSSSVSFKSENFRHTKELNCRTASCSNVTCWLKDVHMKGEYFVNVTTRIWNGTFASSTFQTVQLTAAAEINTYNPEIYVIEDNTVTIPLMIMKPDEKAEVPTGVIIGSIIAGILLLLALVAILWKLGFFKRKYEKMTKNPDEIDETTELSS
UniProt P05556: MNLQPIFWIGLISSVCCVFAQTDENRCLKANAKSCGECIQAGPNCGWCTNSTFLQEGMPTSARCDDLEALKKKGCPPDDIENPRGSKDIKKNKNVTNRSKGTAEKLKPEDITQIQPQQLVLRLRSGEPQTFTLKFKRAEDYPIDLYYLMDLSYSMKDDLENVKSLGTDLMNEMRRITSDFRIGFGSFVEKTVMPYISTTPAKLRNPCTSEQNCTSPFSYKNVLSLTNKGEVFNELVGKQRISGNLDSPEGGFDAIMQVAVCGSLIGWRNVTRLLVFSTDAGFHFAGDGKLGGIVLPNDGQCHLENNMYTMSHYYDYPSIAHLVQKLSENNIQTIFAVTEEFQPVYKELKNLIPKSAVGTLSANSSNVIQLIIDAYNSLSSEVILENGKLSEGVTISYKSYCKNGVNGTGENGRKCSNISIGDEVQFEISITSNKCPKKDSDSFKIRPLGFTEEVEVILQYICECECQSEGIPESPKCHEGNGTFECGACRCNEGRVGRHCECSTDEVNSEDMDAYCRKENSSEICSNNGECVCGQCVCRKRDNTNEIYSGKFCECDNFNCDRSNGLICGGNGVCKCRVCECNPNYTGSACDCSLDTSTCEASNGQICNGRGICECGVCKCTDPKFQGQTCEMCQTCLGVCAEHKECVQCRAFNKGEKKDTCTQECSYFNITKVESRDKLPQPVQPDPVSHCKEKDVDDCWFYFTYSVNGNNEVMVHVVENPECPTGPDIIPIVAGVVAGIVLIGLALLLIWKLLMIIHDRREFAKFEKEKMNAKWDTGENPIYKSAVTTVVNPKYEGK
UniProt P61073: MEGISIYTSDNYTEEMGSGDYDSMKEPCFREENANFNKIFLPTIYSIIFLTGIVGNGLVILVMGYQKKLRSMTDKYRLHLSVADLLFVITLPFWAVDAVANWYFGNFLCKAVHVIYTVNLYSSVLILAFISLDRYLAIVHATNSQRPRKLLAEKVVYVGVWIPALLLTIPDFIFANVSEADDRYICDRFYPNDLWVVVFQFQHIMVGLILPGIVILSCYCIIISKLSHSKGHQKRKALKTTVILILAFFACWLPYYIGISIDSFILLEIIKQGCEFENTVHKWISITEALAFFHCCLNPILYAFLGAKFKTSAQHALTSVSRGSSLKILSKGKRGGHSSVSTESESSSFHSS

Target: integrin α2β1 (human (endogenous in CAFs)) (UniProt P17301+P05556)
Assay: proximity ligation

binding: binds
Substance: CXCR4 (from UniProt P61073 1-352) (receptor)
